Taken from: PubChem BioAssay AID1259266 (Sanger Institute, 2017)

- Test: 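Essential genes and drug synergy among kinases and colorectal-mutated genes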 (primary screen)
- System: LS123 human colorectal cancer cells
- Reagent: siRNA pool against human genes
- Challenge: anchor drugs BYL719 (1 µM), cetuximab (5 µg/ml) or trametinib (10 nM), each chosen to barely slow growth alone; DMSO vehicle as the drug-free arm
- Detection: 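Replicate-averaged viability scaled to non-targeting pools, robust z-score for siRNA alone, and a synergy score per anchor drug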
- Scale: robust z-score, knock-down alone: higher = more cells surviving after knock-down
- Active means: 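a knock-down counts as essential if its z-score without drug is under -3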
- Meaning of the calls: active = essential (knock-down alone cuts viability); inactive = no change
This is a random part of 794 deposited reagents. 16 of all reagents (2%) count as active. 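Calls reflect knock-down alone, not drug synergy; viability seems capped at 1 and z-scores at 0.585.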 Further read-outs or replicates are left out here. The record does not give: the amount of reagent, the time to read-out.

The first 2 entries, ahead of the listing:
| target gene | robust z-score, knock-down alone | Outcome |
| --- | --- | --- |
| AK3 (adenylate kinase 3) | 0.585 | inactive |
| NME2 (NME/NM23 nucleoside diphosphate kinase 2) | 0.585 | inactive |

The listing, repeating the preview:
| target gene | robust z-score, knock-down alone | Outcome |
| --- | --- | --- |
| AK3 (adenylate kinase 3) | 0.585 | inactive |
| NME2 (NME/NM23 nucleoside diphosphate kinase 2) | 0.585 | inactive |
| BMPR1B (bone morphogenetic protein receptor type 1B) | 0.585 | inactive |
| KALRN (kalirin RhoGEF kinase) | 0.392 | inactive |
| PRKAA1 (protein kinase AMP-activated catalytic subunit alpha 1) | 0.585 | inactive |
| DIS3 (DIS3 exosome endoribonuclease and 3'-5' exoribonuclease) | 0.257 | inactive |
| CDK17 (cyclin dependent kinase 17) | 0.585 | inactive |
| MAPK9 (mitogen-activated protein kinase 9) | 0.142 | inactive |
| LMBR1 (limb development membrane protein 1) | 0.585 | inactive |
| STK38 (serine/threonine kinase 38) | -0.768 | inactive |
| ATP23 | 0.585 | inactive |
| NTRK1 (neurotrophic receptor tyrosine kinase 1) | -0.464 | inactive |
| DLG1 (discs large MAGUK scaffold protein 1) | 0.585 | inactive |
| EFNB3 (ephrin B3) | -1.48 | inactive |
| NUP62 (nucleoporin 62) | -0.126 | inactive |
| NEK1 (NIMA related kinase 1) | 0.585 | inactive |
| LATS2 (large tumor suppressor kinase 2) | 0.585 | inactive |
| MAST3 (microtubule associated serine/threonine kinase 3) | -0.677 | inactive |
| UCK2 (uridine-cytidine kinase 2) | 0.585 | inactive |
| TP53 (tumor protein p53) | -0.559 | inactive |
